Record: PubChem BioAssay AID504804 (Drosophila RNAi Screening Center, 2011)

Screen: 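dsRNAs that improve Kc cell survival under doxorubicin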 (primary screen)
Cells: Drosophila Kc cells
Reagent: long dsRNA against Drosophila genes, 0.5 µg dsRNA per well
Time to read-out: 96 h (48 h knock-down, then 48 h drug)
Conditions: doxorubicin 5 µg/ml for 48 h, added 48 h after dsRNA
Detection: 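Luminescent ATP counts per replicate, not normalised, reflecting viable cells after 48 h dsRNA knock-down followed by 48 h of 5 µg/ml doxorubicin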
Scale: raw ATP luminescence: higher = more viable cells, protection from doxorubicin
Hit rule: 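z-score of 2 or more over plate mean in both duplicates, retained only when retests and separate dsRNAs confirm the protection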
In all, the deposit lists about 19,000 reagents; below is an unselected part of those that have a named target and a result. Over the whole deposit, 47 (0.25%) got an active call. 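Signals are raw, not normalised; exact z-scores behind calls not deposited; actives needed confirmation, so some wells reaching 2 SD are inactive.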 Names joined by + are all predicted targets of the reagent.

no.	target gene	DRSC id	raw ATP luminescence, replicate 1	raw ATP luminescence, replicate 2	activity call
1	Ktch	DRSC15094	64700	53140	inactive
2	CG42531	DRSC05318	91723	95740	inactive
3	CG5390	DRSC02855	42950	81927	inactive
4	Atg9	DRSC06848	61763	68693	inactive
5	CG34148 + P5CDh2	DRSC13519	1.80e5	2.18e5	inactive
6	CG34026	DRSC17616	1.88e5	1.98e5	inactive
7	CG6592	DRSC10669	71107	80890	inactive
8	CG5909	DRSC15914	68670	41460	inactive
9	CG6962	DRSC16153	48247	24540	inactive
10	CG34278	DRSC13208	2.29e5	2.74e5	inactive
11	CG3038	DRSC18618	63210	55730	inactive
12	CG7054	DRSC16185	38623	39127	inactive
13	CG9297	DRSC16469	48980	26070	inactive
14	Mur2B	DRSC18545	59830	49910	inactive
15	Mur2B	DRSC18546	55070	54480	inactive
16	Sox21a	DRSC10819	34017	42170	inactive
17	Ugt37E1	DRSC02248	64743	68317	inactive
18	CG12105	DRSC08255	55370	49160	inactive

Copied from the list:
Value of CG5390 [DRSC02855] in “raw ATP luminescence, replicate 1”: 42950
Ktch [DRSC15094], activity call = inactive
Under “activity call”, CG6592 [DRSC10669] is entered as inactive
CG6962 [DRSC16153], raw ATP luminescence, replicate 1: 48247
Under “raw ATP luminescence, replicate 1”, Sox21a [DRSC10819] reads 34017

Additional records:
no.	target gene	DRSC id	raw ATP luminescence, replicate 1	raw ATP luminescence, replicate 2	activity call
19	CG10431	DRSC02055	75293	78850	inactive
20	PGRP-LD + Cralbp + Pmi	DRSC09743	67913	80133	inactive
21	Nup154	DRSC03384	78657	60093	inactive
22	CG40341 (retired record)	DRSC01767	61570	73103	inactive
23	CG40341 (retired record)	DRSC03750	59967	54670	inactive
24	CG7488	DRSC16250	95800	69390	inactive
25	Lipt2	DRSC12338	18223	22807	inactive
26	regucalcin	DRSC18908	2.79e5	2.29e5	inactive
27	regucalcin	DRSC20366	3.61e5	3.15e5	inactive
28	Ctf4	DRSC06380	67160	57137	inactive
29	Adat1	DRSC03479	73367	72423	inactive
30	CG7110	DRSC03011	83043	80067	inactive
31	CG7110	DRSC03012	69537	68273	inactive
32	GstD11	DRSC15251	54233	53733	inactive
33	SMC3	DRSC20227	3.08e5	2.77e5	inactive
34	CG3251	DRSC00586	25290	21890	inactive
